Data taken from PubChem BioAssay AID493014 (National Center for Advancing Translational Sciences (NCATS), 2011).
The other results are listed elsewhere or left out. Further columns of the screen follow, without active or inactive calls. The list favours compounds with an active or inconclusive main result. The note in brackets gives the kind of curve behind each potency; many fits are weak.

Assay: qHTS Assay to Find Inhibitors of Chronic Active B-Cell Receptor Signaling
Conditions: ABC-DLBCL IkBa-CBG/CBR reporter, luminescence ratio (green luciferase fused to IkBa over red control in TMD8 lymphoma cells), 4 h
Method in brief: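 TMD8 human ABC-DLBCL cells with doxycycline-inducible IκBα–green luciferase fusion and unfused red luciferase, in 0.5% FBS medium; compounds up to 46 uM, 4 h at 37C. Green/red luminescence ratio, filter-overlap corrected, fitted to concentration-response curves.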

[1] = measured here: CBR red luminescence, cell number
[2] = measured here: IkBa-CBG green luminescence

Row | Structure (SMILES) | AC50 [1] | AC50 [2]
1 | O=C(NCC1CCCN1S(=O)(=O)c1cccs1)C(=O)Nc1ccc(F)cc1F (stereo unspecified) | 6.51 µM [falling, full curve, poor fit] | –
2 | CCSc1nc2sc3c(c2c(=O)[nH]1)CCCC3 | 4.11 µM [rising, full curve, poor fit] | –
3 | COC(=O)/C(=C\Nc1cccc(Cl)c1C)c1ncc(C(F)(F)F)cc1Cl | 0.82 µM [falling, single point] | –
4 | CCn1c(SCC(=O)Nc2cccc(NC(=O)c3cccs3)c2)nnc1-c1ccncc1 | 20 µM [falling, partial curve, poor fit] | –
5 | COC(=O)c1cc(NC(=O)c2ccc([N+](=O)[O-])cc2)c(=O)oc1C | 20 µM [rising, single point] | –
6 | O=C(NCCCN1CCC(Cc2ccccc2)CC1)C1CCN(S(=O)(=O)N2CCC3(CC2)OCCO3)CC1 | 1 µM [falling, partial curve, poor fit] | –
7 | Oc1c(Br)cccc1/C=N/Nc1c(F)c(F)c(F)c(F)c1F | 2.06 µM [rising, full curve] | –
8 | CCc1cc(=O)oc2cc(OCc3ccc(C(=O)O)o3)ccc12 | 3.98 µM [falling, partial curve, poor fit] | –
9 | O=C(NCc1csc(-c2cccs2)n1)C1CCCCC1 | 35.5 µM [falling, single point] | –
10 | c1ccc(CN2CCN(c3nc4ccccc4c4ccccc34)CC2)cc1 | 20.6 µM [rising, partial curve] | –
11 | CCCNc1c(NC(=O)c2cccs2)c(=O)oc2ccccc12 | 35.5 µM [falling, partial curve, poor fit] | –
12 | Cc1ccccc1-n1c(SCC(=O)N2CCN(c3ccccc3)CC2)nnc1-c1ccncc1 | 31.6 µM [rising, partial curve, poor fit] | –
13 | COc1cc(/C=C(/Sc2nnc(-c3ccc(F)cc3)o2)C(=O)O)ccc1OC(F)F | 17.8 µM [falling, single point] | –
14 | CCOc1ccc(OCCC(=O)N(CC)CC(=O)Nc2c(F)cccc2F)cc1 | 18.4 µM [rising, single point] | 18.4 µM [falling, single point]
15 | Fc1cccc(F)c1/C=N/Nc1ccccn1 | 22.4 µM [falling, single point] | –
16 | CN(C)c1ccc(CN2CCC(C(N)=O)CC2)cc1 | 0.794 µM [rising, full curve, poor fit] | –
17 | Nn1c(COc2ccccc2)nnc1SCc1cc(=O)[nH]c2ccccc12 | 2.91 µM [rising, single point] | –
18 | COCC(C)NCc1cccc(C)c1 (stereo unspecified) | 3.55 µM [rising, full curve, poor fit] | –
19 | CCOC(=O)C1CCN(Cc2nc3ccccc3c(=O)n2-c2ccc(F)cc2)CC1 | 29.1 µM [falling, single point] | –
20 | COCCN=c1scc(-c2ccc3c(c2)NC(=O)CO3)n1/N=C(\C)c1ccc(O)cc1 | 11.2 µM [falling, single point] | –
21 | N#Cc1c(NC(=O)Cn2cnc3ccccc3c2=O)oc(-c2ccccc2)c1-c1ccccc1 | 6.51 µM [falling, single point] | –

Grouped by structure: the entries above containing an NH in an aromatic ring.
Row | Structure (SMILES) | AC50 [1] | AC50 [2]
2 | CCSc1nc2sc3c(c2c(=O)[nH]1)CCCC3 | 4.11 µM [rising, full curve, poor fit] | –
17 | Nn1c(COc2ccccc2)nnc1SCc1cc(=O)[nH]c2ccccc12 | 2.91 µM [rising, single point] | –

The list goes on:

Row | Structure (SMILES) | AC50 [1] | AC50 [2]
22 | O=C(Nc1ccc(N2CCN(C(=O)c3ccco3)CC2)c(Cl)c1)c1cc2ccccc2o1 | 35.5 µM [falling, single point] | –
23 | COc1cc(/C=C(\C#N)c2nc3ccccc3c(=O)[nH]2)cc(OC)c1OC | 17.8 µM [falling, single point] | –
24 | Cc1c(C(=O)N2CC3(CC(c4cccc(NC(=O)CC(c5ccccc5)c5ccccc5)c4)=NO3)C[C@@H]2C(N)=O)cc([N+](=O)[O-])cc1[N+](=O)[O-] (stereo partly specified) | 0.631 µM [falling, partial curve, poor fit] | –
25 | Cc1ccc(C(C)C)c(OCCCN2C(=O)NC(C)(C)C2=O)c1 | 6.51 µM [rising, single point] | –
26 | CNC(=O)c1cccnc1Nc1cccc(C(F)(F)F)c1 | 1.16 µM [rising, full curve] | –
27 | COc1ccc(-c2[nH]c(-c3cc(OC)c4c(c3)OCO4)nc2-c2ccccc2)cc1 | 0.651 µM [falling, full curve, poor fit] | –
28 | Clc1ccc(-c2c[n+](Cc3cccc(Cl)c3)c3n2CCC3)cc1 | 16.4 µM [falling, partial curve, poor fit] | –
29 | COc1cccc(/C=C/C(=O)Nc2ccc(C(=O)Nc3cccc(S(N)(=O)=O)c3)cc2)c1OC | 0.794 µM [falling, full curve, poor fit] | –
30 | CCC(=O)Nc1nc2nc(-c3ccccc3)cc(=O)n2[nH]1 | 22.4 µM [falling, single point] | –
31 | Cc1c(C(=O)NCC2COc3ccccc3O2)oc2ccc(S(=O)(=O)N3CC(C)CC(C)C3)cc12 (stereo unspecified) | 9.2 µM [rising, partial curve, poor fit] | –
32 | O=C(N/N=C/c1cccc(O)c1)N/N=C/c1cccc(O)c1 | 11.2 µM [falling, partial curve, poor fit] | –
33 | O=C(COC(=O)c1ccc(S(=O)(=O)NCc2ccco2)cc1)NC1CCCCC1 | 16.4 µM [rising, partial curve, poor fit] | –
34 | Oc1ccc(Nc2ccnc3cc(Cl)ccc23)cc1 | 35.5 µM [falling, single point] | –
35 | O=C(CSc1ccccc1)N1CCN(c2ccccn2)CC1 | 12.6 µM [falling, single point] | –
36 | O=C(N/N=C/c1cc2c(cc1Br)OCO2)c1cc2ccccc2o1 | 0.631 µM [rising, full curve] | –
37 | CCC(=O)Nc1nonc1-c1nc2ccccc2n1Cc1cccc2ccccc12 | 4.11 µM [rising, full curve] | 4.11 µM [falling, full curve]
38 | CN(Cc1ccccc1)C(=O)CN1C(=O)COc2ccc(S(=O)(=O)N3CCCC3)cc21 | 25.1 µM [falling, single point] | –
39 | COc1cc2ccccc2cc1C(=O)NC(=S)Nc1cccc(C(=O)O)c1 | 12.6 µM [falling, single point] | –
40 | O=C(Nc1ccnc(=O)[nH]1)c1sc2ccccc2c1Cl | 3.55 µM [rising, single point] | –
41 | O=c1cc(CCl)[nH]c2nc3ccccc3n12 | 14.1 µM [falling, partial curve] | –
42 | CC(=O)[C@H]1CC[C@H]2[C@@H]3C[C@H](C)C4=CC(=O)CC[C@]4(C)[C@H]3[C@@H](O)C[C@]12C | 20.6 µM [rising, partial curve, poor fit] | 5.17 µM [falling, full curve]

Row | Structure (SMILES) | AC50 [1] | AC50 [2]
43 | CCN(C(=O)COC(=O)c1cc(-c2ccc3cc(OC)ccc3c2)nc2ccccc12)C1CCS(=O)(=O)C1 (stereo unspecified) | 0.651 µM [falling, full curve, poor fit] | –
44 | Cc1cccc(N(Cc2ccccc2)C(=O)c2cc(S(=O)(=O)N3CCOCC3)ccc2Cl)c1 | 20.6 µM [falling, single point] | –
45 | O=C1c2cccnc2C(Nc2ccc(Br)cc2)N1Cc1cccs1 (stereo unspecified) | 3.16 µM [rising, partial curve] | –
46 | COC(=O)c1sccc1NC(=O)Nc1ccc(F)cc1 | 11.2 µM [falling, partial curve, poor fit] | –
47 | CC(C)OCCCN1CN(S(=O)(=O)c2cccc(Cl)c2)c2nc3ccccc3nc21 | 35.5 µM [falling, single point] | –
48 | COc1cc(NC2CCCCC2O)c2nc(-c3ccc(Cl)cc3)ccc2c1 (stereo unspecified) | 8.91 µM [rising, partial curve, poor fit] | –
49 | Cc1ccc(C(=O)NCc2ccc3c(c2)OCO3)c(C)c1 | 15.8 µM [rising, partial curve, poor fit] | –
50 | COc1ccc(/C=C/C(=O)C2(O)CCCCC2)cc1 | 14.1 µM [falling, single point] | –
51 | COc1ccccc1C(=O)NNC(=O)c1ccccc1Br | 8.91 µM [falling, partial curve] | –
52 | CN(C(=O)c1ccc(COc2ccccc2Cl)o1)c1ccccc1 | 11.2 µM [falling, partial curve] | –
53 | Cc1ccc(-n2c(N)c(C(=O)Nc3ccccc3F)sc2=S)cc1C | 22.4 µM [falling, partial curve, poor fit] | –
54 | COC(=O)c1c(NC(=O)c2nn(C)cc2Cl)sc2c1CCCC2 | 32.6 µM [falling, single point] | –
55 | Cn1cnc([N+](=O)[O-])c1Sc1ncn[nH]1 | 0.891 µM [rising, partial curve, poor fit] | –
56 | N=c1oc2cc(O)ccc2cc1C(=O)Nc1ccccn1 | 12.6 µM [falling, single point] | –
57 | Cc1cc2nnc(SC(C)C)n2c2ccccc12 | 3.66 µM [rising, partial curve, poor fit] | 23.1 µM [falling, single point]
58 | CN(C(=O)COC(=O)c1ccc2c(c1)OCO2)C1CCS(=O)(=O)C1 (stereo unspecified) | 25.1 µM [falling, single point] | –
59 | COc1cccc(C(=O)c2c[nH]c(C(=O)NCc3cccnc3)c2)c1 | 11.2 µM [falling, partial curve] | –
60 | Cc1cc([N+](=O)[O-])ccc1NC1CCCC1 | 29.1 µM [rising, partial curve, poor fit] | –
61 | Cc1cc2cc(CN(CCN(C)C)C(=S)NCc3ccco3)c(=O)[nH]c2cc1C | 14.1 µM [falling, single point] | –
62 | O=C(C1CC1c1ccccc1)N1CCOCC1 (stereo unspecified) | 3.55 µM [rising, full curve, poor fit] | –
